Here are results for nine molecules from paper PMC10754819.

Protein sequences, listed by entry. Tags and fused reporters are not part of them. Lines headed by an entry give the natural chain unless they say otherwise; changes in a name come on top.
UniProt Q7K3M5: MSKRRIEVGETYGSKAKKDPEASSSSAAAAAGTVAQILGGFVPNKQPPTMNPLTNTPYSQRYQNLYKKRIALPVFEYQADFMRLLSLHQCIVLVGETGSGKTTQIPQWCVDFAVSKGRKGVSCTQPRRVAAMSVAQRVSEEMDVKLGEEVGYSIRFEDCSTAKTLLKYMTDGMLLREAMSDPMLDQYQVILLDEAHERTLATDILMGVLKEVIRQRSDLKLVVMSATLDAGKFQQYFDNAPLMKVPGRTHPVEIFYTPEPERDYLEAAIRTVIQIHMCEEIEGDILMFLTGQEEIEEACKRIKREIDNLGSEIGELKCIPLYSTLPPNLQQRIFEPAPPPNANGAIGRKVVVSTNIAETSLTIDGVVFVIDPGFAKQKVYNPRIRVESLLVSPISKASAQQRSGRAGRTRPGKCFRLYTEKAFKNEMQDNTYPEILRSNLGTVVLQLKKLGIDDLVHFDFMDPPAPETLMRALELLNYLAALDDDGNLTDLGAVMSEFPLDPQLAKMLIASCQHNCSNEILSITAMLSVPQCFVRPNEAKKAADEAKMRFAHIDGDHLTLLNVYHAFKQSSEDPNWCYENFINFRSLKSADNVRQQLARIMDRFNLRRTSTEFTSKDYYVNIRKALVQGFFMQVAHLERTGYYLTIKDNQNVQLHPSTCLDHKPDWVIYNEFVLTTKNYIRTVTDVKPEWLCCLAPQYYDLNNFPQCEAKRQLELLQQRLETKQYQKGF
UniProt P12982: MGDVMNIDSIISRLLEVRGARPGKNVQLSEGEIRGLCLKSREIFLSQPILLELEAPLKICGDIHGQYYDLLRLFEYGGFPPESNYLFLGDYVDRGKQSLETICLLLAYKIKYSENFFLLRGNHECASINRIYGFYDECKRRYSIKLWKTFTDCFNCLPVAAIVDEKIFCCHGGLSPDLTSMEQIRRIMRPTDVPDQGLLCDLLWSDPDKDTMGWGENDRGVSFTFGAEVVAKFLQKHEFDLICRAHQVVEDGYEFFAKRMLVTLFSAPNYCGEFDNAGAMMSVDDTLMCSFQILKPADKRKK
UniProt A0A0B4LFP5: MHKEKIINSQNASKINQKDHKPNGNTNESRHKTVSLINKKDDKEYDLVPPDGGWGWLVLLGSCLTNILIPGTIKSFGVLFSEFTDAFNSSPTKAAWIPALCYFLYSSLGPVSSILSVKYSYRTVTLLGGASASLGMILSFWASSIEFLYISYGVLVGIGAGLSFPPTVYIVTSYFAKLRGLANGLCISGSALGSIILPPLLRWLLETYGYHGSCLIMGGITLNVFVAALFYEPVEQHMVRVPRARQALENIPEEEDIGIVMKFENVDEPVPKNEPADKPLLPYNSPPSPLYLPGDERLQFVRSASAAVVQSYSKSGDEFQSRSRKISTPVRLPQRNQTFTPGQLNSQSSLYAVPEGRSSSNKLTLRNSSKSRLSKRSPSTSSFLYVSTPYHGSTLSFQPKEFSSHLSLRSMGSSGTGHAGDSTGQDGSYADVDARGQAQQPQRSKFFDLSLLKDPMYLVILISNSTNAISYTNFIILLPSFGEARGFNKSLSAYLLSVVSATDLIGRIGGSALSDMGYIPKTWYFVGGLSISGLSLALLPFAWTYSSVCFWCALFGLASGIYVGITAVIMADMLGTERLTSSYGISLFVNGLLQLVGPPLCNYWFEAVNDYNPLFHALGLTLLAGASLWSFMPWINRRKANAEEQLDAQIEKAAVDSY

B1: Rga (protein, UniProt Q94547 1-585)
chain: MANLNFQQPPRSIANAALAGRTTGGFGGSSLAGHVTPTSGMFQTDFANSYPGTANYGQAPQQQQQQQQQPQLSPNRNAQLSVGGPAISSGNRNANLFGQRQFVERRAMQGLGSGPMSNMGNFMQTGRGGYGTGGGGGGPLNNFHVFGGGGGSDTSTPALLDPTEFPSLTNARGQNDQTLPQSNPLQPPGSKPYGNFFTSFGMVKQPTSEQSEFTMSNEDFPALPGTQNSDGTTNAVGSVAGTGGSGGASTENHLDGTEKPMNSIVVSGSASGSSGSNVGVVGGNGLGAVGSGIGGLAVGGGGGAGSSGGGGVGGNAASGVVGGSHVGLVGSNSGIGGVNSVPNSNAMMGVGGGLGSGSGSSGSGAGGEHLNDNSSNDKLVKSGVQTSPDGKVTNIPATMVNNQFGMVGLLTFIRAAETDPNLVTLSLGTDLTGLGLNLNSQESLHTTFAGPFVAQPCRAQDVEFNVPPEYLINFAIRDKLTAPVLKKLQEDLLFFLFYTNIGDMMQLMAAAELHSREWRYHVEEKIWITRIPGIDQYEKNGTKERGTFYYFDAQSWKRLSKVFQIDPEKLDKCPNISAFMNGQSV
B2: eIF3a (protein, UniProt Q9VN25 1-1140)
chain: MARYTQRPENALKRANEFIEVGKPLRALDTLQEVFRNKRWNYAYSETVIEPLMFKYLYLCVELKKSHIAKEGLFQYRNMFQLVNVNSLENVIRGYLKMAEEHTEAAQAQSSAAVAVLELDDLDNIATPESILMSAVCGEDAQDRSDRTILLPWVKFLWESYCQCLELLRVNTHCEALYHDIARMAFQFCLKYNRKSEFRRLCDKLRKHLEDICKSSNQTTGVSINKVETQQLCLDTRLYLLDSAIQMELWQEAYKAIEDIHGLMALSKKTPVPKTMANYYQKLAMVFSKAGNQLFHAAALLKLFQLTRELKKNLTKDDLQRMAAHVLLATLSIPLPSAHPEFDRFIEADKSPLEKAQKLAVLLGLPQPPTRVSLIREVVRLNVPQLVSEDFRNLYNWLEVDFNPLNLCKRIQSIVDFIENGPENALLTPYIQSLKDVTIMRLIRQISQVYESIKFQRLLQLASFCNIFELEKLLVESVRHNDMQIRIDHQKNSIYFGTDLTESQREYRPDGPALQSMPSEQIRSQLVNMSTVLTRAVSIVYPNRERDQRAKLRNQMVNHYHEIKDREHQRILQRQKIIEDRKEYIEKQNNAREEEEARRQEEESRKAKLAEQKRLEQEQEERERKRHQNEIQAIREKSLKEKVQQISQTAHGKKMLSKLDEEGIKKLDAEQIAKRESEELQREAKELQSKLKSQEKKIDYFERAKRLEEIPLFEKYLAEKQVKDKEFWEATEKTRIENAIAERKDAVAQQERLKRMYPDRDEFLEALKKERASLYVEKLKKFEAALEAERKKRLADRIIRRREERRQAFLREKEEERLRKEEEIRLAQAAEERAAAEARRLEREAEDEKRRAQYEKQRAKEEEAERKIKEDRDRLSRELASERERTEKDRDTWRPRGGDRPSASNGGSSEWRRAAPAASERNDRGGERIERGGERIERGGERLERGGERIERGGDRDRKDNEGADSSWRVRREPDSQRAAAPKDSGAPQSRDDKWRRGGERDRDFRIDGARRDRDDGPRRDRDDGPRRDRDDERGGFRRADGARRTDEPQRETGGNWRDAPRHADRETRRPAERRDRDVRETRGDQRGSAPKEAASGGVGGNWRTAPATREEKPAAKRDQAQEKENKAGDDGEWTSVKRR
B3: Atx2 (protein, UniProt Q8SWR8 1-1084)
chain: MNNNSKRKTRPTGGGASGGISRYNSNDNSLRPTNNKAGAGGGNGGAAVRPSAQGVYNNTFFMHSATALVGSVVEVRLRSGNIYEGVFRTFSGNFDIALELPACIKSKNLPEEGKVPKHIIFPADTVVTIVAKDFDSQYATAGAFQTDGAISDKCNGARPDEKELEPWDSGANGDIDIELDSAANGWDPNEMFRKNENTFGVTSTFDDSLASYTVPLDKGDSLEFKEAEAKAEKLAAEIENNPTCRDRLDLENGDEEALFAAVERPSTEQDQRGDRGDRERNDRDREREERDRDRDRDRGNKPRGAGDFQLRETMSSDRYITKQTRSITGPQLSHVGMSSQGSGRDRDTRGDGSMMMQSGGGSGQGGSTQSTAALMLAGGLKGVGPAPSANASADSSSKYSGGSMVKRKTVPQGGKVMRNNVPTGGSNVSVSQGGNGNSVGQNKGGYQPSMGMPSQYSYQGNSQIMHGSSQYRNQSHMGGANKLNGDSNANTNKPLPQRQMRQYQGSQSNSSLNYGGEPQSLGKPVHGSHGGHPGQNSNSPPLQTAGPQQQQQQQQQQQQQQQQQQPPQQQQHQNIQPQGQNTQPARQVRTRDNQMQELRQFGQDFQLAPSNTSPPQQQQQQQQQQQQHQVQQQQQRALQQSASPPQQQQQQQQQQQHVVLHQVPQTHLHQAALSQPHYVPQQQPQQAPLPQQQHVPHHMQQKAQQQQLVETQHQHVQKQHQSQPQVQQPPPQLLQDPSQQPLPIYHTMPPPQTSPVVVTSPVLLEQPPPQPMPVVQQQQTQQLATPKPEVSPAPPSSNTTTPTGIASTPTAGVIASAGSEKTTPAAPTPTSNSATVPTGTAATAGGATGTTPVVKKHVLNPSAKPFTPRGPSTPNPSRPHTPQTPVPMTNIYTTTGGHVPPAANQPIYVMQPQHPFPPQTHPQAGQPPRLRRSNYPPMAASQMHVSASAATGQPLITAGPIPQFIQYGHAPHQQQFQSHTYAPMQMRVYPDQPQQLQFMTQTPQSTTPSPGQPHQQFHPPPQPSPAGGGPQPAFTPPTQAATYQLMCVHPQSLLANHYFPPPTPQHPQQNQQQYQIVMQQHQPQ

Results are given in words; binding and its absence hold for the method and conditions named. Binding seen in cells or lysates may run through a third protein. A yes stands for co-enrichment or nearness to the bait. Other partners may have been found. Sequences can lack the tags named with a protein.

The target of the assay is T1, dTrmt10A-FLAG-HA (Drosophila Trmt10A, CG14618) (Drosophila) (UniProt Q9VR56).
T1 sequence: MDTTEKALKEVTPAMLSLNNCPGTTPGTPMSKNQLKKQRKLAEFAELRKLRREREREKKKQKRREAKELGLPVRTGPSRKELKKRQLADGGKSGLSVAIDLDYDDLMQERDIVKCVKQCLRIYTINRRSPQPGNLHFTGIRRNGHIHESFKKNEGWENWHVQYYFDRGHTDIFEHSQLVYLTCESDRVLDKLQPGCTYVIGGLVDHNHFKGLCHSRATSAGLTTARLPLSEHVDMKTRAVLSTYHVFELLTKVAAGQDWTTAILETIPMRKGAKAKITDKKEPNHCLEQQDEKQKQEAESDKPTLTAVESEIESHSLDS
The experiment in a line: affinity purification with mass spectrometry; dTrmt10A-FLAG-HA immunoprecipitated from adult fly head lysates (80 heads per replicate, n = 3) with anti-HA antibody immobilised on agarose resin, mouse IgG as control; overnight at 4 °C; LC-MS/MS, MaxQuant.
Consider CG9953 (from UniProt Q9VS02), for which the binding entry is recorded as “binds”. Regarding CG18680, the binding entry is reported as “binds”. To Dhx15 (from UniProt Q7K3M5 1-729) belongs “binds”; to Pp1-87B (from UniProt P12982 1-302), “binds”.

As to hrm (from UniProt A0A0B4LFP5), the binding entry is listed as “binds”.

Turning to twin, the binding result was “binds”.

For the molecule B1, the binding entry is listed as “binds”. For the molecule B2, the binding result is listed as “binds”. To B3 belongs “binds”.
